Measured data: PubChem BioAssay AID1259284 (Sanger Institute, 2017)

Assay: 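siRNA screen across the kinome seeking partners for BYL719, cetuximab or trametinib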 (primary screen)
System: SW48 human colorectal cancer cells
Knock-down reagent: siRNA pool against human genes
Treatment: anchor drug BYL719 at 1 µM, cetuximab at 5 µg/ml or trametinib at 10 nM, or DMSO vehicle alone
Measured: 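Viability scaled to non-targeting control pool, robust z-score from controls, and synergy scores for each drug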
Scale: robust z-score, no drug: higher = more cells survive knock-down
Rule for the call: 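a knock-down is essential if viability without drug gives a robust z-score under -3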
Meaning of the calls: active = essential without drug; inactive = no change without drug
In all, the deposit lists 794 reagents; this is a part drawn at random. Over the whole deposit, 16 (2%) are marked active. 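Calls concern knock-down without drug only; drug synergy was judged apart, with scores above 0.15 taken as synergy.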 Not all columns of the deposit are shown. Not given: the amount of reagent, the time to read-out.

no.	target gene	robust z-score, no drug	activity call
1	PIP5K1B	-2.14	inactive
2	ATM	0.426	inactive
3	TSSK2	0.289	inactive
4	PRPS1L1	0.426	inactive
5	EFNA3	0.426	inactive
6	ABL1	-1.13	inactive
7	CHUK	0.426	inactive
8	ULK3	0.426	inactive
9	IP6K1	0.426	inactive
10	EIF2AK3	0.426	inactive
11	EPHA6	-4.44	active
12	DGKI	0.426	inactive
13	PTK2B	-2.43	inactive
14	GNE	0.426	inactive
15	CAMKV	0.426	inactive
16	MAST4	0.426	inactive
17	PNCK	0.426	inactive
18	ACVR1C	0.426	inactive
19	NME4	0.426	inactive
20	NUP62	0.426	inactive
21	PLK3	0.426	inactive
22	MAP3K15	0.426	inactive
23	ACVR1	0.426	inactive
24	SIK3	0.426	inactive
25	CSF1R	-3.37	active
26	CAMK2A	0.426	inactive
27	ACSL6	-0.324	inactive
28	PGK2	0.426	inactive
29	IGF2R	0.426	inactive
30	SRP72	0.38	inactive
31	PSKH1	0.426	inactive
32	SRPK3	0.426	inactive
33	CLSPN	-0.638	inactive
34	LATS2	0.426	inactive

Hits, among the entries above:
target gene	robust z-score, no drug	activity call
EPHA6	-4.44	active
CSF1R	-3.37	active
